The list is a part of this screen's results and no random one: it gathers tests that were run many times, whatever their T/C, doses with no T/C, and many T/C values between a quarter and a half above the control. Further doses and runs are listed elsewhere. T/C: endpoint of the treated group in % of that of the vehicle group. Schedules are NCI's codes, taken here to give the interval after Q, in days (D) or hours (H), and the number of doses after X. Some T/C values are followed by the survivors on the day toxicity was checked, most often the fifth; without a count, all were alive then. Some doses were run more than once; the results are listed from low to high. Some entries give survivors of the animals treated and no T/C: the source files T/C as zero there, which appears to mark a toxic dose or a test without result, not a measured value. Counts of survivors are from the toxicity check (mostly the fifth day) where no day follows; animals may have died later.
Tested on: BDF1 mice, Adenocarcinoma 755 s.c., tumor weight T/C
Assay: NCI In Vivo Anticancer Drug Screen. Data for tumor model Adenocarcinoma 755 (subcutaneous) in B6D2F1 (BDF1) mice
Details: T/C endpoint: mean tumor weight, higher T/C = larger tumour; for T/C: evaluated on day 12
Outline: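 In vivo antitumor screen on a transplantable tumor line. Result equals the measure in compound-treated animals divided by the same measure in vehicle controls.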

[1] = dose: 400.0 mg/kg/injection, schedule: Q01DX011 (ip), vehicle: methylcellulose (MC)
[2] = dose: 100.0 mg/kg/injection, schedule: Q01DX011 (ip), vehicle: other
[3] = dose: 200.0 mg/kg/injection, schedule: Q01DX011 (ip), vehicle: carboxymethylcellulose (CMC)
[4] = dose: 433.0 mg/kg/injection, schedule: Q01DX011 (ip), vehicle: carboxymethylcellulose (CMC)
[5] = dose: 100.0 mg/kg/injection, schedule: Q01DX011 (ip), vehicle: methylcellulose (MC)
[6] = dose: 200.0 mg/kg/injection, schedule: Q01DX011 (ip), vehicle: methylcellulose (MC)
[7] = dose: 800.0 mg/kg/injection, schedule: Q01DX011 (ip), vehicle: other

NC(=O)c1ccc(NC(=O)/C=C/C(=O)Nc2ccc(C(N)=O)cn2)nc1
survivor count (dose: 3.75 mg/kg/injection, schedule: Q01DX011 (ip), vehicle: carboxymethylcellulose (CMC)): 4 of 10

C[C@]12CCCC[C@@H]1CC[C@@H]1[C@@H]2[C@@H](O)C[C@]2(C)[C@@H](N)CC[C@@H]12
T/C (dose: 11.0 mg/kg/injection, schedule: Q01DX011 (sc), vehicle: steroid suspending solution): 146 % of control

CN1CCC(CN2c3ccccc3Sc3ccccc32)CC1
survivor count (dose: 240.0 mg/kg/injection, schedule: Q01DX011 (ip), vehicle: methylcellulose (MC)): 4 of 10

CCCn1cnc2c(SCCc3ccccc3)nc(N)nc21
survivor count [1]: 6 of 10

C=CC(O)CN1CC1(C)C (stereo not given) (tested in a mixture with another compound)
T/C (dose: 7.5 mg/kg/injection, schedule: Q01DX011 (ip), vehicle: methylcellulose (MC)): 130 % of control

CC1=CCN2CCC(O)C12 (stereo not given)
T/C (dose: 75.0 mg/kg/injection, schedule: Q01DX011 (ip), vehicle: carboxymethylcellulose (CMC)): 129 % of control

NC(=O)c1ccc(NC(=O)CCC(=O)Nc2ccc(C(N)=O)cn2)nc1
survivor count (dose: 10.0 mg/kg/injection, schedule: Q01DX011 (ip), vehicle: carboxymethylcellulose (CMC)): 0 of 10
survivor count (dose: 20.0 mg/kg/injection, schedule: Q01DX011 (ip), vehicle: carboxymethylcellulose (CMC)): 0 of 10

O=P(Oc1ccccc1)(OP(=O)(Oc1ccccc1)N(CCCl)CCCl)N(CCCl)CCCl (stereo not given)
survivor count [2]: 6 of 10

COS(C)(=O)=O
survivor count (dose: 100.0 mg/kg/injection, schedule: Q01DX011 (ip), vehicle: carboxymethylcellulose (CMC)): 1 of 10
survivor count [3]: 0 of 10

COC(=O)[C@@H]1c2cc3c(c(O)c2[C@@H](OC2OC(C)C(OC)C(C)(OC)C2OC)C[C@]1(C)O)C(=O)c1c(O)cc2c(c1C3=O)O[C@H]1O[C@]2(C)[C@H](O)[C@@H](N(C)C)[C@@H]1O (stereo not given in full)
T/C (dose: 0.2 mg/kg/injection, schedule: Q01DX011 (ip), vehicle: saline): 137 % of control [9 of 10 alive]
T/C (dose: 0.67 mg/kg/injection, schedule: Q01DX011 (ip), vehicle: saline): 132 % of control
survivor count (dose: 1.0 mg/kg/injection, schedule: Q01DX011 (ip), vehicle: saline): 3 of 10

C=CCC1(CC)C(=O)NC(=O)NC1=O
T/C (dose: 25.0 mg/kg/injection, schedule: Q01DX011 (ip), vehicle: methylcellulose (MC)): 125 % of control
survivor count [3]: 0 of 10
survivor count (dose: 340.0 mg/kg/injection, schedule: Q01DX011 (ip), vehicle: carboxymethylcellulose (CMC)): 0 of 10
survivor count (dose: 400.0 mg/kg/injection, schedule: Q01DX011 (ip), vehicle: carboxymethylcellulose (CMC)): 0 of 10
survivor count (dose: 800.0 mg/kg/injection, schedule: Q01DX011 (ip), vehicle: carboxymethylcellulose (CMC)): 0 of 10
survivor count (dose: 1600.0 mg/kg/injection, schedule: Q01DX011 (ip), vehicle: carboxymethylcellulose (CMC)): 0 of 10

CN1CC[C@]23c4c5ccc(O)c4O[C@H]2C(=O)CC[C@@]3(O)[C@H]1C5
survivor count (dose: 36.0 mg/kg/injection, schedule: Q01DX011 (ip), vehicle: methylcellulose (MC)): 5 of 10

CO[C@@H]1[C@@H](OC2OC(C)C(OC3CC(C)(O)C(OC(=O)CC(C)C)C(C)O3)C(N(C)C)C2O)[C@@H](CC=O)C[C@@H](C)C(=O)/C=C/C2O[C@H]2C[C@@H](C)OC(=O)C[C@H]1OC(C)=O (stereo not given in full)
survivor count (dose: 350.0 mg/kg/injection, schedule: Q01DX011 (ip), vehicle: other): 5 of 10

CC1CN1P(=O)(Oc1ccccc1)N1CC1C (stereo not given)
survivor count (dose: 100.0 mg/kg/injection, schedule: Q01DX011 (ip), vehicle: saline): 6 of 10

c1ncc2[nH]cnc2n1
T/C (dose: 108.25 mg/kg/injection, schedule: Q01DX011 (ip), vehicle: carboxymethylcellulose (CMC)): 129 % of control [9 of 10 alive]
T/C (dose: 216.5 mg/kg/injection, schedule: Q01DX011 (ip), vehicle: carboxymethylcellulose (CMC)): 55, 100, 103, 108 % of control
T/C [4]: 13 [9 of 10 alive], 31, 57 % of control [9 of 10 alive]
survivor count [4]: 6 of 10
survivor count (dose: 500.0 mg/kg/injection, schedule: Q01DX011 (ip), vehicle: methylcellulose (MC)): 2 of 10

O=c1[nH]cnc2c1ncn2C1CCCCC1
T/C (dose: 93.0 mg/kg/injection, schedule: Q01DX011 (ip), vehicle: carboxymethylcellulose (CMC)): 131 % of control
T/C (dose: 185.0 mg/kg/injection, schedule: Q01DX011 (ip), vehicle: carboxymethylcellulose (CMC)): 71 [7 of 10 alive], 74, 85, 86 % of control [9 of 10 alive]

CC(=O)[C@@]1(O)[C@H](C)C[C@H]2[C@@H]3C=C(C)C4=Cc5c(cnn5-c5ccccc5)C[C@]4(C)[C@H]3[C@@H](O)C[C@@]21C
survivor count (dose: 0.5 mg/kg/injection, schedule: Q01DX011 (sc), vehicle: steroid suspending solution): 1 of 6
survivor count (dose: 1.0 mg/kg/injection, schedule: Q01DX011 (sc), vehicle: steroid suspending solution): 6 of 10

c1ccc2c(c1)ccc1cc3c(ccc4ccccc43)cc12
T/C [5]: 15, 29, 29 [8 of 10 alive], 83 % of control
survivor count [5]: 2 of 10
T/C [6]: 21 [9 of 10 alive], 41, 43 % of control [9 of 10 alive]
survivor count [6]: 4 of 10 and 5 of 10
survivor count [1]: 2 of 10
survivor count (dose: 600.0 mg/kg/injection, schedule: Q01DX011 (ip), vehicle: methylcellulose (MC)): 5 of 10
survivor count [7]: 6 of 10

C1OC1C1CO1 (stereo not given)
T/C (dose: 6.1 mg/kg/injection, schedule: Q01DX011 (ip), vehicle: carboxymethylcellulose (CMC)): 128 % of control

O/N=C1\CCCC\C1=N/O
T/C [2]: 125 % of control

O=C(OCC1OC(n2cnc3c(=S)nc[nH]c32)C(OC(=O)c2ccc([N+](=O)[O-])cc2)C1OC(=O)c1ccc([N+](=O)[O-])cc1)c1ccc([N+](=O)[O-])cc1 (stereo not given)
survivor count [2]: 6 of 10
survivor count [7]: 0 of 10

CC1CCN(/N=N/c2nc3c([nH]2)c(=O)n(C)c(=O)n3C)CC1
survivor count (dose: 225.0 mg/kg/injection, schedule: Q01DX011 (ip), vehicle: methylcellulose (MC)): 4 of 10

O=c1[nH]c(=O)n(C2CC(O)C(CO)O2)cc1F (stereo not given)
survivor count (dose: 150.0 mg/kg/injection, schedule: Q01DX011 (ip), vehicle: other): 6 of 12

NC(N)=Nc1nc2ccccc2s1
T/C (dose: 12.5 mg/kg/injection, schedule: Q01DX011 (ip), vehicle: other): 139 % of control
T/C (dose: 12.5 mg/kg/injection, schedule: Q01DX011 (ip), vehicle: water): 129 % of control
survivor count (dose: 25.0 mg/kg/injection, schedule: Q01DX011 (ip), vehicle: carboxymethylcellulose (CMC)): 6 of 10
survivor count (dose: 50.0 mg/kg/injection, schedule: Q01DX011 (ip), vehicle: carboxymethylcellulose (CMC)): 0 of 10
survivor count (dose: 50.0 mg/kg/injection, schedule: Q01DX011 (ip), vehicle: other): 2 of 10

c1ccc2cc(SCCCN3CCOCC3)ccc2c1
survivor count (dose: 75.0 mg/kg/injection, schedule: Q01DX011 (ip), vehicle: methylcellulose (MC)): 6 of 10
survivor count (dose: 150.0 mg/kg/injection, schedule: Q01DX011 (ip), vehicle: methylcellulose (MC)): 3 of 10
survivor count (dose: 300.0 mg/kg/injection, schedule: Q01DX011 (ip), vehicle: methylcellulose (MC)): 5 of 10

NNC(=O)CCC(N)C(=O)O (stereo not given)
T/C (dose: 43.05 mg/kg/injection, schedule: Q01DX011 (ip), vehicle: carboxymethylcellulose (CMC)): 134 % of control
survivor count (dose: 86.1 mg/kg/injection, schedule: Q01DX011 (ip), vehicle: carboxymethylcellulose (CMC)): 6 of 10
